Structures can show the parent of a compound that is named as a salt. The list shows a part of the results. Hit calls seldom repeat between salt and free forms of one compound.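 In K562 cells expressing nanoluciferase-fused kinases, luminescence was recorded at 4 h intervals between 2 and 18 h, normalized as percent of control with DMSO at 100% and a positive control at 0%. A significant (2 sigma) signal drop marks a time point as decreased. The authors' rule for a hit is not shown and takes in more than the number of time points.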
How the values were obtained:
Conditions in all cases: K562, 2-18 h
[1] = target: RET (UniProt P07949); assay: kinase-Nluc reporter destabilization hit call (1 = scored as downregulated) (binary); higher = compound decreases kinase abundance
[2] = target: RET_M918T (clone: RET_mut) (UniProt P07949); assay: as above
[3] = target: RIOK1 (UniProt Q9BRS2); assay: as above
[4] = target: RIPK1 (UniProt Q13546); assay: as above
[5] = target: RIPK2 (UniProt O43353); assay: as above
[6] = target: ROR2 (UniProt Q01974); assay: as above
[7] = target: RPS6KA1 (UniProt Q15418); assay: as above
[8] = target: SPHK1 (UniProt Q9NYA1); assay: as above
[9] = target: SRC (UniProt P12931); assay: as above
[10] = target: STK24 (UniProt Q9Y6E0); assay: as above
[11] = target: STK38 (UniProt Q15208); assay: as above
[12] = target: SYK (UniProt P43405); assay: as above
[13] = target: TEC (UniProt P42680); assay: as above
[14] = target: TYK2 (UniProt P29597); assay: as above
[15] = target: ULK3 (UniProt Q6PHR2); assay: as above
[16] = target: YES1 (UniProt P07947); assay: as above
[17] = target: ZAK (UniProt Q9NYL2); assay: as above
[18] = target: ZAP70 (UniProt P43403); assay: as above
[19] = target: CDK4 (UniProt P11802); assay: number of time points (of 4; 2 h point missing) at which kinase-Nluc abundance scored as decreased, DMSO-normalised (count); higher = more persistent destabilization
[20] = target: CDK7 (UniProt P50613); assay: as above

Amino acid sequences for entries named in this document (tags omitted). A change or cut given only in a name is not applied to a line headed by its entry.
UniProt P07949, whole entry, looked up: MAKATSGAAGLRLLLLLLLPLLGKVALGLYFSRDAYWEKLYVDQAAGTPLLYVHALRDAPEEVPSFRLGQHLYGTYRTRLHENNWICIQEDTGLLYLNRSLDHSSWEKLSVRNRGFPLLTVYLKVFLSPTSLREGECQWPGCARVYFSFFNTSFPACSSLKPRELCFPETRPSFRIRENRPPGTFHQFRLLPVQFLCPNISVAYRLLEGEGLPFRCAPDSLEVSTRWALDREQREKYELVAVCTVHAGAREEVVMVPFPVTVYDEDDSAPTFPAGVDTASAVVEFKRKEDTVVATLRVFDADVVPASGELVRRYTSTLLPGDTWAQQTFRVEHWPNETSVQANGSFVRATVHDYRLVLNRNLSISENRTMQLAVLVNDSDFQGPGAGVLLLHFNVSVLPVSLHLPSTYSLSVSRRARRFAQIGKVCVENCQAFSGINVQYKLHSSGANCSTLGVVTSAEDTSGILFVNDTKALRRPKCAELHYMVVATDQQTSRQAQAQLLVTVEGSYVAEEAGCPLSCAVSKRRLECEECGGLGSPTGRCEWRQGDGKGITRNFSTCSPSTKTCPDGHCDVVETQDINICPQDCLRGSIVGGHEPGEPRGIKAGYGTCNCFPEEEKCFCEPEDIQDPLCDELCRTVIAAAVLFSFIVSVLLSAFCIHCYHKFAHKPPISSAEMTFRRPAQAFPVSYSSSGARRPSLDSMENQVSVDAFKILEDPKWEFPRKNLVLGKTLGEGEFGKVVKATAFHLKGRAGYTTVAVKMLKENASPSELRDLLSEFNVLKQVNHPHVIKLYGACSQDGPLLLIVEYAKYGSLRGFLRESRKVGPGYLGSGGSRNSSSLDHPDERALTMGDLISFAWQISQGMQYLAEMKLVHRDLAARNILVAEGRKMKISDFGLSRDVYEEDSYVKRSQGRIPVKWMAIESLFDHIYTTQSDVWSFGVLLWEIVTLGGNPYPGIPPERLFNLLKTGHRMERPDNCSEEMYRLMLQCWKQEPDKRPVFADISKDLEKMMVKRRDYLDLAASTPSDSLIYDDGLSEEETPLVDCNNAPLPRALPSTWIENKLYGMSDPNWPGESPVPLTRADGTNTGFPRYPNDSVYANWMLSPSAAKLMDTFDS
UniProt P07949, whole entry M918T, looked up: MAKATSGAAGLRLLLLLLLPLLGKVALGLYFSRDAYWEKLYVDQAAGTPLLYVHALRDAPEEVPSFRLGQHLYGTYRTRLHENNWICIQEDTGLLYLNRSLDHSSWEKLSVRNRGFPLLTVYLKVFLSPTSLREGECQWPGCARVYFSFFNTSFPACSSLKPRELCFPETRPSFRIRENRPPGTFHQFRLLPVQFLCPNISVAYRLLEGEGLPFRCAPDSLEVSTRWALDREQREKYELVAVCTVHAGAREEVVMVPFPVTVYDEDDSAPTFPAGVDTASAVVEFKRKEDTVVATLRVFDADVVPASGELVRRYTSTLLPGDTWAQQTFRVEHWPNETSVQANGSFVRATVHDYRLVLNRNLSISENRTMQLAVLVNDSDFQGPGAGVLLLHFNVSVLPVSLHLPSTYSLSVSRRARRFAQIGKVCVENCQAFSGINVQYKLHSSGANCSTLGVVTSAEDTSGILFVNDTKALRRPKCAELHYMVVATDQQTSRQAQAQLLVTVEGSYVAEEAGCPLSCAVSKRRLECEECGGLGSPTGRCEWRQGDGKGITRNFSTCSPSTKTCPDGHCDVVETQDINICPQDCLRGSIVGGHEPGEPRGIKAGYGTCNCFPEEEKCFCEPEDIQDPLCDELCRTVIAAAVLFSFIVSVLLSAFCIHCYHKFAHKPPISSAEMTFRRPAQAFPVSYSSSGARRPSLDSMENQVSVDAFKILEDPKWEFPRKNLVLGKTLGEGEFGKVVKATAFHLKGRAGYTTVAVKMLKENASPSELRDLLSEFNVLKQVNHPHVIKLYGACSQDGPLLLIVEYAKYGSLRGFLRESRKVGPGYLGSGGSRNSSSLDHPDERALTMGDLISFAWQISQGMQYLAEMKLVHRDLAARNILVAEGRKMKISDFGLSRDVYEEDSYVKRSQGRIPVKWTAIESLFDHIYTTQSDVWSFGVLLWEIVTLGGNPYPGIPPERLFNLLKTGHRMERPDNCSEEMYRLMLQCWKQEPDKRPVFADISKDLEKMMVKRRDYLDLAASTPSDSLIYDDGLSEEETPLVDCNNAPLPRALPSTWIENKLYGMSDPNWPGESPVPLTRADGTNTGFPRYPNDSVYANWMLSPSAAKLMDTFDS
UniProt Q9BRS2: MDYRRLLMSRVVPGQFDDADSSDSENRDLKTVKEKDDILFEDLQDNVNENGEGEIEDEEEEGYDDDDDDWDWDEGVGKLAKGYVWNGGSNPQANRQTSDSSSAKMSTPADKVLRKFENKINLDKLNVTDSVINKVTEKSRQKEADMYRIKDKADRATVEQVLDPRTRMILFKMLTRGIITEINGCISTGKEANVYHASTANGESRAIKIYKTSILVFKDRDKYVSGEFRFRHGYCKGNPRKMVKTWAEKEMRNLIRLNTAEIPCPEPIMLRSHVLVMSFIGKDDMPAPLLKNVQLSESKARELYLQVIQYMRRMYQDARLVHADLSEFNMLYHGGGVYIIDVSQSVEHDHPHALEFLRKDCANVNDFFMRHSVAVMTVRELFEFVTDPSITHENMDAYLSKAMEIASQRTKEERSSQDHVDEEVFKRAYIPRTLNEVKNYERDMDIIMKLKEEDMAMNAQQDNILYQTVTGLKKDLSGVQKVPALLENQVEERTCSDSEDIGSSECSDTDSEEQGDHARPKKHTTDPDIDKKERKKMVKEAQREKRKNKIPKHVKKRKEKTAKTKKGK
UniProt Q13546: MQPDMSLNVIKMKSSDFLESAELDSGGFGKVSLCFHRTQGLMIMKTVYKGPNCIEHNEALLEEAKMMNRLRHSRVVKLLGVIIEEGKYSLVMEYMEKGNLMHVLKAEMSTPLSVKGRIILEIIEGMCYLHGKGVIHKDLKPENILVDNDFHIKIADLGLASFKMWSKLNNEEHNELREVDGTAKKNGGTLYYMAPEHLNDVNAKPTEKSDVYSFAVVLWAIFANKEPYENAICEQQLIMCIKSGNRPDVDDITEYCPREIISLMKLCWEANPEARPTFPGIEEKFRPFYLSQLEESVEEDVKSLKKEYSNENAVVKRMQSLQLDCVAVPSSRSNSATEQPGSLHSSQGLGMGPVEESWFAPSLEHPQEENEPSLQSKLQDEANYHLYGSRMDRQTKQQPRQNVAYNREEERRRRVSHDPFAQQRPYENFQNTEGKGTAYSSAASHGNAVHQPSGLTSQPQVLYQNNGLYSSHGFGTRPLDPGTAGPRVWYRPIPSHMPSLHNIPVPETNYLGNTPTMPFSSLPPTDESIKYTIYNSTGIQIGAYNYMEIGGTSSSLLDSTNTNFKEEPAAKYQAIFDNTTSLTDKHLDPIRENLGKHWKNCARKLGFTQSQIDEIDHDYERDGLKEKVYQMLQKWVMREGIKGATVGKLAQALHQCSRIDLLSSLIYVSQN
UniProt Q15418, whole entry: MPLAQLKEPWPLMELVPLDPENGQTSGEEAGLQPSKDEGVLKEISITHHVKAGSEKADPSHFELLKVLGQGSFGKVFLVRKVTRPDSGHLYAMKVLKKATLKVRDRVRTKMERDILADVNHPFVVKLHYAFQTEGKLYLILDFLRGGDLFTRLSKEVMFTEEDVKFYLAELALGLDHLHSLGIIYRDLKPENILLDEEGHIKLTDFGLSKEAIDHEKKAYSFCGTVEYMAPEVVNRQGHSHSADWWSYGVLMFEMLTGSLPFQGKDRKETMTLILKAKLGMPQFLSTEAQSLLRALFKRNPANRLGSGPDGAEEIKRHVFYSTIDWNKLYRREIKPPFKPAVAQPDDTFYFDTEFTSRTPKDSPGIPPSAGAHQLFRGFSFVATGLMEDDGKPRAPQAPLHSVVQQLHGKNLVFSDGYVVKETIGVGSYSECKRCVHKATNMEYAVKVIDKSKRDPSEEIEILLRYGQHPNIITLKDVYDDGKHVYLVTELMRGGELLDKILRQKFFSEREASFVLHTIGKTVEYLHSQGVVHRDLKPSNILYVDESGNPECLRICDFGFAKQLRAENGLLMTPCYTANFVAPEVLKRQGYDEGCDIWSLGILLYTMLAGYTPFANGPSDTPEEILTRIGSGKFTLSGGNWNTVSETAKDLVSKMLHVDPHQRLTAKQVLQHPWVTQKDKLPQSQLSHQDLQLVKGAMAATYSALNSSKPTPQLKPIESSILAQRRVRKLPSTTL
UniProt Q9Y6E0: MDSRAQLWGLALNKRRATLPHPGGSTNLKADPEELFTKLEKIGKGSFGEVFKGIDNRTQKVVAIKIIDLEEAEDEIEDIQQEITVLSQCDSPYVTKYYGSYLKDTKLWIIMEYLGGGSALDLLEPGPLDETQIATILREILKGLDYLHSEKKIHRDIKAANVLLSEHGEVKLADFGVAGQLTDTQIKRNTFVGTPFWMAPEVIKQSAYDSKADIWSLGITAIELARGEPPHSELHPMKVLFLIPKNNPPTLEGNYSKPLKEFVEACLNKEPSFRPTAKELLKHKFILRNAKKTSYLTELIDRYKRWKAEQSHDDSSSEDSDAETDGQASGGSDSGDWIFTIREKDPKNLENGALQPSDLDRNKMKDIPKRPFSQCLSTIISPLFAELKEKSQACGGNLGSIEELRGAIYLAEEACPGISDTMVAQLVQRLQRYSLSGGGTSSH
UniProt Q15208: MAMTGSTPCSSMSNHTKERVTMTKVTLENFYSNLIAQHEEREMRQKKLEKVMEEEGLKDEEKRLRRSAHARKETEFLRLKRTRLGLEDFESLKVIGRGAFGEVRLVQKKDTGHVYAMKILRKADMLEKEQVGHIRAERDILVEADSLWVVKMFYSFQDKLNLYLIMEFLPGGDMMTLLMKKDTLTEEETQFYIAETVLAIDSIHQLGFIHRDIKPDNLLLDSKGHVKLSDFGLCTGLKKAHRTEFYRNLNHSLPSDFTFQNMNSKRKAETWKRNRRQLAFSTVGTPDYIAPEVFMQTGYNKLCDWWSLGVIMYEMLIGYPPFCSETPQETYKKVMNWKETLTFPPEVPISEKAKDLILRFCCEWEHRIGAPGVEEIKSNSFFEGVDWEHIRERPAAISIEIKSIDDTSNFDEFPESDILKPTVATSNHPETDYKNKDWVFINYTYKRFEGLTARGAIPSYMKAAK
UniProt P07947, whole entry, looked up: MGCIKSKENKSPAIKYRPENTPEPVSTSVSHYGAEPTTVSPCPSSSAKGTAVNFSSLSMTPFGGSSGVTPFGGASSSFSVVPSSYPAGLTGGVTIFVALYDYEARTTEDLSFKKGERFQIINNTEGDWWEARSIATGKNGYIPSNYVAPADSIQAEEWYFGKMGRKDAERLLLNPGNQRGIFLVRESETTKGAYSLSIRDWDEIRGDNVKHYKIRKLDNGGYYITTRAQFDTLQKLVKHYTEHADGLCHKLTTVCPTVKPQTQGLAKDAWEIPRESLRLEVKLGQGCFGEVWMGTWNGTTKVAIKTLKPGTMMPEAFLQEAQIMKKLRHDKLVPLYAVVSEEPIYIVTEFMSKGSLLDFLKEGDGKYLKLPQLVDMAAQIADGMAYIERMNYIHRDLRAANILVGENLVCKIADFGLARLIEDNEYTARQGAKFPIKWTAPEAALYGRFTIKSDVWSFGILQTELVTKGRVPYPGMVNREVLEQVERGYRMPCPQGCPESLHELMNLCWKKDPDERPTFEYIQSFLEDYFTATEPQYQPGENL
UniProt P43403: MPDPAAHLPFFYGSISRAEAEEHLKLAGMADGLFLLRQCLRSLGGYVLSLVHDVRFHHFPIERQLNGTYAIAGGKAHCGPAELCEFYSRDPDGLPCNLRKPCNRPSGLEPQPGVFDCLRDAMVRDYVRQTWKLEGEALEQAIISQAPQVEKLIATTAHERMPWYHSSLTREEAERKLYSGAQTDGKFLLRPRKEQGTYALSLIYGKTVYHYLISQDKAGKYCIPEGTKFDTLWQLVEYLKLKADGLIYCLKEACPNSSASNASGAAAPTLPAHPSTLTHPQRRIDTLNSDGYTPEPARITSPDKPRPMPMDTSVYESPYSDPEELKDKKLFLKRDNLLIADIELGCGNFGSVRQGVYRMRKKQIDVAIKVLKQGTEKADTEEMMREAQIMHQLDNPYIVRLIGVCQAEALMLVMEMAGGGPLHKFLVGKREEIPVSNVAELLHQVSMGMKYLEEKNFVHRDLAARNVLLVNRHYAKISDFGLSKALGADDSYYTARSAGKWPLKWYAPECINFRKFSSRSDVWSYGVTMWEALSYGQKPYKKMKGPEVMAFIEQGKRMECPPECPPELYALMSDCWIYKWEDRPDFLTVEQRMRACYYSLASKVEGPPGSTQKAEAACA
UniProt P11802: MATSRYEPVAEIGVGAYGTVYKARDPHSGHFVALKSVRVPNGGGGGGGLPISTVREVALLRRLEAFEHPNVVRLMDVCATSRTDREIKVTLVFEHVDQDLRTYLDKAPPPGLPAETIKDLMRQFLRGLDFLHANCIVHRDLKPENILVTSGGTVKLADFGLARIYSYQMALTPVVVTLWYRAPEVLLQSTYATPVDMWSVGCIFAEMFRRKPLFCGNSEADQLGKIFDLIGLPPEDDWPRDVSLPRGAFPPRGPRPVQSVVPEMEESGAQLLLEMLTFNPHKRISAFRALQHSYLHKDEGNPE

C=CC(=O)Nc1cc(Nc2nccc(-c3cn(C)c4ccccc34)n2)c(OC)cc1N(C)CCN(C)C [Osimertinib (dimesylate)]
kinase-Nluc reporter destabilization hit call ([1]; 2.5 µM): inactive: 0 | kinase-Nluc reporter destabilization hit call ([2]; 2.5 µM): inactive: 0 | kinase-Nluc reporter destabilization hit call ([3]; 2.5 µM): inactive: 0 | kinase-Nluc reporter destabilization hit call ([4]; 2.5 µM): inactive: 0 | kinase-Nluc reporter destabilization hit call ([5]; 2.5 µM): inactive: 0 | kinase-Nluc reporter destabilization hit call ([6]; 2.5 µM): inactive: 0 | kinase-Nluc reporter destabilization hit call ([7]; 2.5 µM): inactive: 0 | kinase-Nluc reporter destabilization hit call ([8]; 2.5 µM): inactive: 0 | kinase-Nluc reporter destabilization hit call ([9]; 2.5 µM): inactive: 0 | kinase-Nluc reporter destabilization hit call ([10]; 2.5 µM): inactive: 0 | kinase-Nluc reporter destabilization hit call ([11]; 2.5 µM): inactive: 0 | kinase-Nluc reporter destabilization hit call ([12]; 2.5 µM): inactive: 0 | kinase-Nluc reporter destabilization hit call ([13]; 2.5 µM): inactive: 0 | kinase-Nluc reporter destabilization hit call ([14]; 2.5 µM): inactive: 0 | kinase-Nluc reporter destabilization hit call ([15]; 2.5 µM): inactive: 0 | kinase-Nluc reporter destabilization hit call ([16]; 2.5 µM): inactive: 0 | kinase-Nluc reporter destabilization hit call ([17]; 2.5 µM): inactive: 0 | kinase-Nluc reporter destabilization hit call ([18]; 2.5 µM): inactive: 0 | number of time points ([19]; 2.5 µM): 0 | number of time points ([20]; 2.5 µM): 0

Cc1nc2ccc(-n3c(-c4nonc4N)nc4cnccc43)cc2[nH]1
kinase-Nluc reporter destabilization hit call ([1]; 10 µM): inactive: 0 | kinase-Nluc reporter destabilization hit call ([2]; 10 µM): inactive: 0 | kinase-Nluc reporter destabilization hit call ([3]; 10 µM): inactive: 0 | kinase-Nluc reporter destabilization hit call ([4]; 10 µM): inactive: 0 | kinase-Nluc reporter destabilization hit call ([5]; 10 µM): inactive: 0 | kinase-Nluc reporter destabilization hit call ([6]; 10 µM): inactive: 0 | kinase-Nluc reporter destabilization hit call ([7]; 10 µM): inactive: 0 | kinase-Nluc reporter destabilization hit call ([8]; 10 µM): inactive: 0 | kinase-Nluc reporter destabilization hit call ([9]; 10 µM): inactive: 0 | kinase-Nluc reporter destabilization hit call ([10]; 10 µM): inactive: 0 | kinase-Nluc reporter destabilization hit call ([11]; 10 µM): inactive: 0 | kinase-Nluc reporter destabilization hit call ([12]; 10 µM): inactive: 0 | kinase-Nluc reporter destabilization hit call ([13]; 10 µM): inactive: 0 | kinase-Nluc reporter destabilization hit call ([14]; 10 µM): inactive: 0 | kinase-Nluc reporter destabilization hit call ([15]; 10 µM): inactive: 0 | kinase-Nluc reporter destabilization hit call ([16]; 10 µM): inactive: 0 | kinase-Nluc reporter destabilization hit call ([17]; 10 µM): inactive: 0 | kinase-Nluc reporter destabilization hit call ([18]; 10 µM): inactive: 0 | number of time points ([19]; 10 µM): 0 | number of time points ([20]; 10 µM): 0

COC(=O)[C@H](CC(C)C)NC(=O)c1ccc(NC[C@@H](N)CS)cc1-c1cccc2ccccc12
kinase-Nluc reporter destabilization hit call ([1]; 10 µM): inactive: 0 | kinase-Nluc reporter destabilization hit call ([2]; 10 µM): inactive: 0 | kinase-Nluc reporter destabilization hit call ([3]; 10 µM): inactive: 0 | kinase-Nluc reporter destabilization hit call ([4]; 10 µM): inactive: 0 | kinase-Nluc reporter destabilization hit call ([5]; 10 µM): inactive: 0 | kinase-Nluc reporter destabilization hit call ([6]; 10 µM): inactive: 0 | kinase-Nluc reporter destabilization hit call ([7]; 10 µM): inactive: 0 | kinase-Nluc reporter destabilization hit call ([8]; 10 µM): inactive: 0 | kinase-Nluc reporter destabilization hit call ([9]; 10 µM): inactive: 0 | kinase-Nluc reporter destabilization hit call ([10]; 10 µM): inactive: 0 | kinase-Nluc reporter destabilization hit call ([11]; 10 µM): inactive: 0 | kinase-Nluc reporter destabilization hit call ([12]; 10 µM): inactive: 0 | kinase-Nluc reporter destabilization hit call ([13]; 10 µM): inactive: 0 | kinase-Nluc reporter destabilization hit call ([14]; 10 µM): inactive: 0 | kinase-Nluc reporter destabilization hit call ([15]; 10 µM): inactive: 0 | kinase-Nluc reporter destabilization hit call ([16]; 10 µM): inactive: 0 | kinase-Nluc reporter destabilization hit call ([17]; 10 µM): inactive: 0 | kinase-Nluc reporter destabilization hit call ([18]; 10 µM): inactive: 0 | number of time points ([19]; 10 µM): 0 | number of time points ([20]; 10 µM): 0

C#Cc1cccc(Nc2ncnc3cc(OCCOC)c(OCCOC)cc23)c1 [Erlotinib]
kinase-Nluc reporter destabilization hit call ([1]; 10 µM): inactive: 0 | kinase-Nluc reporter destabilization hit call ([2]; 10 µM): inactive: 0 | kinase-Nluc reporter destabilization hit call ([3]; 10 µM): inactive: 0 | kinase-Nluc reporter destabilization hit call ([4]; 10 µM): inactive: 0 | kinase-Nluc reporter destabilization hit call ([5]; 10 µM): inactive: 0 | kinase-Nluc reporter destabilization hit call ([6]; 10 µM): inactive: 0 | kinase-Nluc reporter destabilization hit call ([7]; 10 µM): inactive: 0 | kinase-Nluc reporter destabilization hit call ([8]; 10 µM): inactive: 0 | kinase-Nluc reporter destabilization hit call ([9]; 10 µM): inactive: 0 | kinase-Nluc reporter destabilization hit call ([10]; 10 µM): inactive: 0 | kinase-Nluc reporter destabilization hit call ([11]; 10 µM): inactive: 0 | kinase-Nluc reporter destabilization hit call ([12]; 10 µM): inactive: 0 | kinase-Nluc reporter destabilization hit call ([13]; 10 µM): inactive: 0 | kinase-Nluc reporter destabilization hit call ([14]; 10 µM): active: 1 | kinase-Nluc reporter destabilization hit call ([15]; 10 µM): inactive: 0 | kinase-Nluc reporter destabilization hit call ([16]; 10 µM): inactive: 0 | kinase-Nluc reporter destabilization hit call ([17]; 10 µM): inactive: 0 | kinase-Nluc reporter destabilization hit call ([18]; 10 µM): inactive: 0 | number of time points ([19]; 10 µM): 0 | number of time points ([20]; 10 µM): 0

COc1cc2nccc(Nc3cc(OC)c(OC)c(OC)c3)c2cc1OC [GAK inhibitor 49 (hydrochloride)]
kinase-Nluc reporter destabilization hit call ([1]; 10 µM): inactive: 0 | kinase-Nluc reporter destabilization hit call ([2]; 10 µM): inactive: 0 | kinase-Nluc reporter destabilization hit call ([3]; 10 µM): inactive: 0 | kinase-Nluc reporter destabilization hit call ([4]; 10 µM): inactive: 0 | kinase-Nluc reporter destabilization hit call ([5]; 10 µM): inactive: 0 | kinase-Nluc reporter destabilization hit call ([6]; 10 µM): inactive: 0 | kinase-Nluc reporter destabilization hit call ([7]; 10 µM): inactive: 0 | kinase-Nluc reporter destabilization hit call ([8]; 10 µM): inactive: 0 | kinase-Nluc reporter destabilization hit call ([9]; 10 µM): inactive: 0 | kinase-Nluc reporter destabilization hit call ([10]; 10 µM): inactive: 0 | kinase-Nluc reporter destabilization hit call ([11]; 10 µM): inactive: 0 | kinase-Nluc reporter destabilization hit call ([12]; 10 µM): inactive: 0 | kinase-Nluc reporter destabilization hit call ([13]; 10 µM): inactive: 0 | kinase-Nluc reporter destabilization hit call ([14]; 10 µM): inactive: 0 | kinase-Nluc reporter destabilization hit call ([15]; 10 µM): inactive: 0 | kinase-Nluc reporter destabilization hit call ([16]; 10 µM): inactive: 0 | kinase-Nluc reporter destabilization hit call ([17]; 10 µM): inactive: 0 | kinase-Nluc reporter destabilization hit call ([18]; 10 µM): inactive: 0 | number of time points ([19]; 10 µM): 0 | number of time points ([20]; 10 µM): 3

COc1cc(/C=C/C(=O)O)ccc1O [Ferulic acid]
kinase-Nluc reporter destabilization hit call ([1]; 10 µM): inactive: 0 | kinase-Nluc reporter destabilization hit call ([2]; 10 µM): inactive: 0 | kinase-Nluc reporter destabilization hit call ([3]; 10 µM): inactive: 0 | kinase-Nluc reporter destabilization hit call ([4]; 10 µM): inactive: 0 | kinase-Nluc reporter destabilization hit call ([5]; 10 µM): inactive: 0 | kinase-Nluc reporter destabilization hit call ([6]; 10 µM): inactive: 0 | kinase-Nluc reporter destabilization hit call ([7]; 10 µM): inactive: 0 | kinase-Nluc reporter destabilization hit call ([8]; 10 µM): inactive: 0 | kinase-Nluc reporter destabilization hit call ([9]; 10 µM): inactive: 0 | kinase-Nluc reporter destabilization hit call ([10]; 10 µM): inactive: 0 | kinase-Nluc reporter destabilization hit call ([11]; 10 µM): inactive: 0 | kinase-Nluc reporter destabilization hit call ([12]; 10 µM): inactive: 0 | kinase-Nluc reporter destabilization hit call ([13]; 10 µM): inactive: 0 | kinase-Nluc reporter destabilization hit call ([14]; 10 µM): inactive: 0 | kinase-Nluc reporter destabilization hit call ([15]; 10 µM): inactive: 0 | kinase-Nluc reporter destabilization hit call ([16]; 10 µM): inactive: 0 | kinase-Nluc reporter destabilization hit call ([17]; 10 µM): inactive: 0 | kinase-Nluc reporter destabilization hit call ([18]; 10 µM): inactive: 0 | number of time points ([19]; 10 µM): 0 | number of time points ([20]; 10 µM): 0

CCc1nc(C(N)=O)c(Nc2ccc(N3CCC(N4CCN(C)CC4)CC3)c(OC)c2)nc1NC1CCOCC1 [Gilteritinib]
kinase-Nluc reporter destabilization hit call ([1]; 2 µM): inactive: 0 | kinase-Nluc reporter destabilization hit call ([2]; 2 µM): inactive: 0 | kinase-Nluc reporter destabilization hit call ([3]; 2 µM): inactive: 0 | kinase-Nluc reporter destabilization hit call ([4]; 2 µM): inactive: 0 | kinase-Nluc reporter destabilization hit call ([5]; 2 µM): inactive: 0 | kinase-Nluc reporter destabilization hit call ([6]; 2 µM): inactive: 0 | kinase-Nluc reporter destabilization hit call ([7]; 2 µM): inactive: 0 | kinase-Nluc reporter destabilization hit call ([8]; 2 µM): inactive: 0 | kinase-Nluc reporter destabilization hit call ([9]; 2 µM): inactive: 0 | kinase-Nluc reporter destabilization hit call ([10]; 2 µM): inactive: 0 | kinase-Nluc reporter destabilization hit call ([11]; 2 µM): inactive: 0 | kinase-Nluc reporter destabilization hit call ([12]; 2 µM): inactive: 0 | kinase-Nluc reporter destabilization hit call ([13]; 2 µM): inactive: 0 | kinase-Nluc reporter destabilization hit call ([14]; 2 µM): inactive: 0 | kinase-Nluc reporter destabilization hit call ([15]; 2 µM): inactive: 0 | kinase-Nluc reporter destabilization hit call ([16]; 2 µM): inactive: 0 | kinase-Nluc reporter destabilization hit call ([17]; 2 µM): inactive: 0 | kinase-Nluc reporter destabilization hit call ([18]; 2 µM): inactive: 0 | number of time points ([19]; 2 µM): 0 | number of time points ([20]; 2 µM): 0

Cc1ccc(NC(=O)c2ccc(CN3CCN(C)CC3)cc2)cc1Nc1nc(-c2cccnc2)cs1 [Masitinib]
kinase-Nluc reporter destabilization hit call ([1]; 2.5 µM): inactive: 0 | kinase-Nluc reporter destabilization hit call ([2]; 2.5 µM): inactive: 0 | kinase-Nluc reporter destabilization hit call ([3]; 2.5 µM): inactive: 0 | kinase-Nluc reporter destabilization hit call ([4]; 2.5 µM): inactive: 0 | kinase-Nluc reporter destabilization hit call ([5]; 2.5 µM): inactive: 0 | kinase-Nluc reporter destabilization hit call ([6]; 2.5 µM): inactive: 0 | kinase-Nluc reporter destabilization hit call ([7]; 2.5 µM): inactive: 0 | kinase-Nluc reporter destabilization hit call ([8]; 2.5 µM): inactive: 0 | kinase-Nluc reporter destabilization hit call ([9]; 2.5 µM): inactive: 0 | kinase-Nluc reporter destabilization hit call ([10]; 2.5 µM): inactive: 0 | kinase-Nluc reporter destabilization hit call ([11]; 2.5 µM): inactive: 0 | kinase-Nluc reporter destabilization hit call ([12]; 2.5 µM): inactive: 0 | kinase-Nluc reporter destabilization hit call ([13]; 2.5 µM): inactive: 0 | kinase-Nluc reporter destabilization hit call ([14]; 2.5 µM): inactive: 0 | kinase-Nluc reporter destabilization hit call ([15]; 2.5 µM): inactive: 0 | kinase-Nluc reporter destabilization hit call ([16]; 2.5 µM): inactive: 0 | kinase-Nluc reporter destabilization hit call ([17]; 2.5 µM): inactive: 0 | kinase-Nluc reporter destabilization hit call ([18]; 2.5 µM): inactive: 0 | number of time points ([19]; 2.5 µM): 0 | number of time points ([20]; 2.5 µM): 3

From the supplement of paper PMC12823440, “Inhibitors supercharge kinase turnover through native proteolytic circuits” (Nature, 2025)
